{"sequences": {"note": "By UniProt entry, the sequences of proteins in these tests, tags left out. Where a name states a change or a piece, a line headed by the entry shows the natural chain unless it says otherwise.", "UniProt Q9HCM4": "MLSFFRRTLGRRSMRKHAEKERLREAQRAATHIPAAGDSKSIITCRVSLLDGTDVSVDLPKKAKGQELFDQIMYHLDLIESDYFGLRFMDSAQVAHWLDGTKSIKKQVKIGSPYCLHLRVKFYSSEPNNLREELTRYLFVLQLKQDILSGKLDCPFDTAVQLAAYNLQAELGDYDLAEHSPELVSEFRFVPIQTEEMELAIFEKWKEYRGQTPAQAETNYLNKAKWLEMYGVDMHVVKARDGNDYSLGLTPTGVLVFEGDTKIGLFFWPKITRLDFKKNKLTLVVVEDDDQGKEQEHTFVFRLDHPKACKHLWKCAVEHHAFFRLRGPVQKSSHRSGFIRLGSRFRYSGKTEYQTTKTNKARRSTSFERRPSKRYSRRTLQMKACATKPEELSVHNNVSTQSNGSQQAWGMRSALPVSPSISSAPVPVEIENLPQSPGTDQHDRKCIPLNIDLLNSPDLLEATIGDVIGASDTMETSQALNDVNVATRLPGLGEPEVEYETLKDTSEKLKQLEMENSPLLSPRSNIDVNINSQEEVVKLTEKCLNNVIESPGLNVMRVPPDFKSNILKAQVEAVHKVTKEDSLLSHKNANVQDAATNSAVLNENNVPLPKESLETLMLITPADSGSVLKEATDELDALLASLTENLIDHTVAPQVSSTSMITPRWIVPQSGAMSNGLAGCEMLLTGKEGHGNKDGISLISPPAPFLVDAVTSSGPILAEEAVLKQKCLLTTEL", "UniProt Q9HCS7": "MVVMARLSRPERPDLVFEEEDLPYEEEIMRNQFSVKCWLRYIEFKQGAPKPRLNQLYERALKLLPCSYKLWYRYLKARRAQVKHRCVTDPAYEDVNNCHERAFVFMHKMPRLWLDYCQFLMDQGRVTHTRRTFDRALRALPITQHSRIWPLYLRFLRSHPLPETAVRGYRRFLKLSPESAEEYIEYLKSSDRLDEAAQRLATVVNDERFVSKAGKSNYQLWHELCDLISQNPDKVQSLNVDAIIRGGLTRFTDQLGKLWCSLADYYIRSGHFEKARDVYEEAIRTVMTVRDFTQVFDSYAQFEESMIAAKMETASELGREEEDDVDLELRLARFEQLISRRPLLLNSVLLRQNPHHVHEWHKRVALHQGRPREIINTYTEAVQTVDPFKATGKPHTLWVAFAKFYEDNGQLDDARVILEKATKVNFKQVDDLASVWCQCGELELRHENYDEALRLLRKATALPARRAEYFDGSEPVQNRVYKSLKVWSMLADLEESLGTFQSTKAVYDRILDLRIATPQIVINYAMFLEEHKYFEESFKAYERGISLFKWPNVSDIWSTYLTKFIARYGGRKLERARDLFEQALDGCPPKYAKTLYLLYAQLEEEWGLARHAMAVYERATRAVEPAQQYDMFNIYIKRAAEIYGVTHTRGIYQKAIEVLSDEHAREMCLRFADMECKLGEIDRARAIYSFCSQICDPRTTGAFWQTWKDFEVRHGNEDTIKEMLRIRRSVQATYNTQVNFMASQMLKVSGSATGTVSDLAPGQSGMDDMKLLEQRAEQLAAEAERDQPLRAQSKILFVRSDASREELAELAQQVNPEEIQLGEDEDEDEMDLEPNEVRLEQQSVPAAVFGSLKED", "UniProt Q9HBL0": "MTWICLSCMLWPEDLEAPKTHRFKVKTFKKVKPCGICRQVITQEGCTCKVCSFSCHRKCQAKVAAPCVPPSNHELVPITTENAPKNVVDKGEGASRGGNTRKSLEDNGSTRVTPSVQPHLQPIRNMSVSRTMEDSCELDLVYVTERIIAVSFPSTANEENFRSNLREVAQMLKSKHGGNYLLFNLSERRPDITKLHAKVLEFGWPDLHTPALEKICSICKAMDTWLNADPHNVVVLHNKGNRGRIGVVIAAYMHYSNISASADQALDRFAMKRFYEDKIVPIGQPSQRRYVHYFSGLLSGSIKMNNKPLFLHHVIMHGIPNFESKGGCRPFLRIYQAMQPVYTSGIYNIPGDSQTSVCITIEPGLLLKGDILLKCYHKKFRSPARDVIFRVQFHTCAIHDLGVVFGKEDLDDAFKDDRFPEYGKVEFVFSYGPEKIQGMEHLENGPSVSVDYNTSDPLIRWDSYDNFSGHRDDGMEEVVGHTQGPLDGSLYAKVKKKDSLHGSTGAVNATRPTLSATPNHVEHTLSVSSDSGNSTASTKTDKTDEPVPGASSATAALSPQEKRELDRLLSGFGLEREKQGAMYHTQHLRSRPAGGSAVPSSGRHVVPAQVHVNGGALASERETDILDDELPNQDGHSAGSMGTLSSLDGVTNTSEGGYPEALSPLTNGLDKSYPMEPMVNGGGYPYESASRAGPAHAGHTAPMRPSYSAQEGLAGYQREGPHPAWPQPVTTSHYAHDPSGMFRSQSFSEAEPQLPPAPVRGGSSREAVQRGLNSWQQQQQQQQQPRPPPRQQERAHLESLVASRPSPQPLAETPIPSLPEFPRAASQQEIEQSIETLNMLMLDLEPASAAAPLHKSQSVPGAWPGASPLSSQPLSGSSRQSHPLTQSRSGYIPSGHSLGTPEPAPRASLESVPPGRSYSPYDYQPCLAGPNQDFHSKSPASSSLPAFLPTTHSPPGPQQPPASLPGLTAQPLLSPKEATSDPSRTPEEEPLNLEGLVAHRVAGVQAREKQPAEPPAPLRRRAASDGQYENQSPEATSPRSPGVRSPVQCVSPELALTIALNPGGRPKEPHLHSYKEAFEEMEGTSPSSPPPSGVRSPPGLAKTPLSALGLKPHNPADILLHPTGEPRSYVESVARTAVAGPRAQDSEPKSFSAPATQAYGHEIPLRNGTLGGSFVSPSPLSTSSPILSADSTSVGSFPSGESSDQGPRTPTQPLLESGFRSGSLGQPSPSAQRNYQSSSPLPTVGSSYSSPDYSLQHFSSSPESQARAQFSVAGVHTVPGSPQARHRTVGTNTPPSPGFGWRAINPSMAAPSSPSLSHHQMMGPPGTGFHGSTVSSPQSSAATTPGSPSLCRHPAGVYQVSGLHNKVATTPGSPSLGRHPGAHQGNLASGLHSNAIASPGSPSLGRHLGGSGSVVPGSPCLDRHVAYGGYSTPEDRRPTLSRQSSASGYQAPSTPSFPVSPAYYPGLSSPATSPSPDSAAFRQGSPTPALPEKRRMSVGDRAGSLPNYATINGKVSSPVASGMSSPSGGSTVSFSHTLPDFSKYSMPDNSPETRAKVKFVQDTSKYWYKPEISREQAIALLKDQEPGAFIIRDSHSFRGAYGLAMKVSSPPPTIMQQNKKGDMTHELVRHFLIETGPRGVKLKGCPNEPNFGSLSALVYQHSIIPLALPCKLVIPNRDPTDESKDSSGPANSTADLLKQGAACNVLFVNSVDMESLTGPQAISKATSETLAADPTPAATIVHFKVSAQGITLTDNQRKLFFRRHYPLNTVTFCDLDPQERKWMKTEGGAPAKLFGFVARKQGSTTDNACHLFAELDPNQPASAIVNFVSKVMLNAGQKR", "UniProt Q9HD40": "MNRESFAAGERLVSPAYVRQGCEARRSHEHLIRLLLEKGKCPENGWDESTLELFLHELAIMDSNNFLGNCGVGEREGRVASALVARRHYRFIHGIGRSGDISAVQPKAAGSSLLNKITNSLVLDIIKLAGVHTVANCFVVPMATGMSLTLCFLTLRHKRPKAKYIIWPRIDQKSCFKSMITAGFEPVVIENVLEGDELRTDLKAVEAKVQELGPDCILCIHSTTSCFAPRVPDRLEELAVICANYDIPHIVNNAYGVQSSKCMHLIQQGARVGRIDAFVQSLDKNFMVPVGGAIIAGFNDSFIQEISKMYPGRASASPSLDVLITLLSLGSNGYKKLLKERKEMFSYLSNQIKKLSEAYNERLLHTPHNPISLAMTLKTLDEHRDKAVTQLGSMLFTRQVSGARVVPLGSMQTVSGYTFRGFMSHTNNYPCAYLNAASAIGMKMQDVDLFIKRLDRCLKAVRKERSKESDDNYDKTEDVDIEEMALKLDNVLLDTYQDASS", "UniProt Q9NQE9": "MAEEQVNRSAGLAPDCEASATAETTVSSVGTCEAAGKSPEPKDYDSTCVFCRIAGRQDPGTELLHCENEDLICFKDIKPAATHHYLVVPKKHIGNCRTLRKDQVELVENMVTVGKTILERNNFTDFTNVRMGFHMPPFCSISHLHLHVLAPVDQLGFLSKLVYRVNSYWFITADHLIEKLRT", "UniProt Q9HAY2": "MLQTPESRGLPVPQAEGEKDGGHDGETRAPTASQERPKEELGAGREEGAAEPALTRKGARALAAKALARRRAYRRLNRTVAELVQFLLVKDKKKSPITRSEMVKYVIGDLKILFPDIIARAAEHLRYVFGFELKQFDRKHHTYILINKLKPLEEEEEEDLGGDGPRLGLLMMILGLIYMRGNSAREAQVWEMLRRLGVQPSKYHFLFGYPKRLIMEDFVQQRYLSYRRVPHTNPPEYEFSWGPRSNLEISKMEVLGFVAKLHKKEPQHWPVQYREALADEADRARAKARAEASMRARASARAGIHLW", "UniProt Q9HBI1": "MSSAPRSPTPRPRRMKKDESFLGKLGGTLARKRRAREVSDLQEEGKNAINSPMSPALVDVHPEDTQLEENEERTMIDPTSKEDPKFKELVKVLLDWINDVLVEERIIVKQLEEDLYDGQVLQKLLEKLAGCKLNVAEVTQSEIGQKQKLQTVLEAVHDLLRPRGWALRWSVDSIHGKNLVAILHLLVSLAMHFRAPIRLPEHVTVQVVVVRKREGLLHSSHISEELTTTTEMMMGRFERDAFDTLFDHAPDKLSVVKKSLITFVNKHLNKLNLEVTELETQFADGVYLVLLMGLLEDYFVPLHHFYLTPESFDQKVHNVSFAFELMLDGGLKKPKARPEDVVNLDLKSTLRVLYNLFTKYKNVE", "UniProt Q9NP81": "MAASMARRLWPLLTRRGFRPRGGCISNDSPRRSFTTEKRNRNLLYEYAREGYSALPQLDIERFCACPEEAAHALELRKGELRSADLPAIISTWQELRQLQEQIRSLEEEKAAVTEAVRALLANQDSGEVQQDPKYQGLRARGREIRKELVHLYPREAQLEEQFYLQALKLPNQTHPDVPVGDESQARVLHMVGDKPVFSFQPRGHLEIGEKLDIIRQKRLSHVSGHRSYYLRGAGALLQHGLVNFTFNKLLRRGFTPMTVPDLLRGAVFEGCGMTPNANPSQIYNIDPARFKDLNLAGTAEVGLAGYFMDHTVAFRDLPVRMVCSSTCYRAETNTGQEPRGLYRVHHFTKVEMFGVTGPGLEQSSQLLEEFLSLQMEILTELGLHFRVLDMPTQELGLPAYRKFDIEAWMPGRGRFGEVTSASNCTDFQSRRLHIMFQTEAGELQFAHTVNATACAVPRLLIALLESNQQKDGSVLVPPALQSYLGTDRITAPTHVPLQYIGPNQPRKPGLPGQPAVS", "UniProt Q9H6Q4": "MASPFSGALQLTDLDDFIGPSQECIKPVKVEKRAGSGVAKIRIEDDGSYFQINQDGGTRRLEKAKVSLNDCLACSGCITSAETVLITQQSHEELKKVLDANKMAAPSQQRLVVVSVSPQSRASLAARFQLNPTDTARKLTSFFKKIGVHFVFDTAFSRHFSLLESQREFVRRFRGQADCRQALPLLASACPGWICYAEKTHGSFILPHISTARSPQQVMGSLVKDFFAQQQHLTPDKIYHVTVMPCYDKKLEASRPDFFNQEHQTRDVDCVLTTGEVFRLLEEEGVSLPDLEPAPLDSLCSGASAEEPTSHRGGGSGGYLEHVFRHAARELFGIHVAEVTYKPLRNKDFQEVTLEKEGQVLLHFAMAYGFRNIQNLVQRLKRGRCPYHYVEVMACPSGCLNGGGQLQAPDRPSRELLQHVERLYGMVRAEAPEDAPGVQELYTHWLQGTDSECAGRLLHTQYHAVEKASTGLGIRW", "UniProt Q9HCJ3": "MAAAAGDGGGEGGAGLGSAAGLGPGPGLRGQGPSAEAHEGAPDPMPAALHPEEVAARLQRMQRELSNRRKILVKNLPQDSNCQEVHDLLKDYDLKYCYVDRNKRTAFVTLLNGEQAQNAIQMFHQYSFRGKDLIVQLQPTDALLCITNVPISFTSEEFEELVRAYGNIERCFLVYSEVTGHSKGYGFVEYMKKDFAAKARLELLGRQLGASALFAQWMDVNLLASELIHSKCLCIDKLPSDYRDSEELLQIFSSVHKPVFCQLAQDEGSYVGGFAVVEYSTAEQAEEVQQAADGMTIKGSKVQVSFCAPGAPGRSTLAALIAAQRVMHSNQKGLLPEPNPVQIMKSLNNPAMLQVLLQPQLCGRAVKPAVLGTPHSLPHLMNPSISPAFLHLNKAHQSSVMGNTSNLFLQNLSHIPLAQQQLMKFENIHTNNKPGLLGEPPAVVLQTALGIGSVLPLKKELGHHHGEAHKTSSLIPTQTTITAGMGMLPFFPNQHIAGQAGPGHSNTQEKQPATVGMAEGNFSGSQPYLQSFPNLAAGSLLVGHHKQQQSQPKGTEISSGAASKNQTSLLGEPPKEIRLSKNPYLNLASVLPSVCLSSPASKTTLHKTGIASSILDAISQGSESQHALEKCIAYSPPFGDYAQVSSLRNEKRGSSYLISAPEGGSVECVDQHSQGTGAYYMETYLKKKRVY"}, "source": "the supplement of paper PMC12819154", "about": "“High-throughput peptide-centric local stability assay extends protein–ligand identification to membrane proteins, tissues and bacteria” (Nature Structural & Molecular Biology, 2025)", "compound": "CN[C@@H]1C[C@H]2O[C@@](C)([C@@H]1OC)n1c3ccccc3c3c4c(c5c6ccccc6n2c5c31)C(=O)NC4 [staurosporine]", "test": "log2 fold change of tryptic peptide abundance, ligand vs vehicle (limited proteolysis) (log2 ratio); higher = more trypsin-susceptible (destabilized)", "details": "ligand concentration: 20 uM; sample: K562 cleared lysate; digestion: 4 min, 22 C (HT-PELSA RT4min, Orbitrap Astral)", "note": "The other results are listed elsewhere or left out. Most entries show no effect beyond the scatter of the controls.", "data": [{"target": "EPB41L5 (peptide sequence: CLNNVIESPGLNVMR, peptide start residue: 543) (UniProt Q9HCM4)", "values": [{"measurement": "log2 fold change", "result": -0.647}]}, {"target": "XAB2 (peptide sequence: AIEVLSDEHAR, peptide start residue: 655) (UniProt Q9HCS7)", "values": [{"measurement": "log2 fold change", "result": -0.212}]}, {"target": "SCAF1 (peptide sequence: IGDRDPIPLPVPSLLPR, peptide start residue: 134) (UniProt Q9H7N4)", "values": [{"measurement": "log2 fold change", "result": -0.37}]}, {"target": "PLEKHA3 (peptide sequence: SVSHPGSCSSER, peptide start residue: 209) (UniProt Q9HB20)", "values": [{"measurement": "log2 fold change", "result": -0.0836}]}, {"target": "TNS1 (peptide sequence: HPAGVYQVSGLHNK, peptide start residue: 1353) (UniProt Q9HBL0)", "values": [{"measurement": "log2 fold change", "result": 0.372}]}, {"target": "SEPSECS (peptide sequence: SKESDDNYDKTEDVDIEEMALK, peptide start residue: 466) (UniProt Q9HD40)", "values": [{"measurement": "log2 fold change", "result": -0.101}]}, {"target": "HINT3 (peptide sequence: VNSYWFITADHLIEKLRT, peptide start residue: 165) (UniProt Q9NQE9)", "values": [{"measurement": "log2 fold change", "result": 0.749}]}, {"target": "MAGEF1 (peptide sequence: MEVLGFVAK, peptide start residue: 252) (UniProt Q9HAY2)", "values": [{"measurement": "log2 fold change", "result": -0.0348}]}, {"target": "PARVB (peptide sequence: TMIDPTSKEDPKFK, peptide start residue: 74) (UniProt Q9HBI1)", "values": [{"measurement": "log2 fold change", "result": 0.354}]}, {"target": "EPS8L2 (peptide sequence: IVENLGILTGPQLFSLNKEELKK, peptide start residue: 646) (UniProt Q9H6S3)", "values": [{"measurement": "log2 fold change", "result": -0.222}]}, {"target": "SARS2 (peptide sequence: LPNQTHPDVPVGDESQAR, peptide start residue: 170) (UniProt Q9NP81)", "values": [{"measurement": "log2 fold change", "result": 0.437}]}, {"target": "UniProt Q9H6Q4 (peptide sequence: ELFGIHVAEVTYKPLR, peptide start residue: 330)", "values": [{"measurement": "log2 fold change", "result": -0.272}]}, {"target": "ECT2 (peptide sequence: SPHGQTRPPASLK, peptide start residue: 716) (UniProt Q9H8V3)", "values": [{"measurement": "log2 fold change", "result": 0.74}]}, {"target": "RAVER2 (peptide sequence: NQTSLLGEPPKEIR, peptide start residue: 565) (UniProt Q9HCJ3)", "values": [{"measurement": "log2 fold change", "result": 0.28}]}]}
